Data: US7579468B2, “Methods of modulating neurotrophin-mediated activity” (PainCeptor Pharma Corporation, priority 2005, dated 2009)
At least one structure is not confirmed: it was looked up by name or label, or the drawing left a doubt.

What was measured:
[1] = system: HEK_TrkA: TrkA alone (human TrkA); assay: 125I-NGF binding displacement in HEK_TrkA cells; details: individual experiment
Method: (§1) All cells were incubated at 37° C. in 5% CO2. PC12 cells were maintained in RPMI-1640 medium supplemented with 10% fetal bovine serum (FBS). A875 human melanoma cells were maintained in DMEM with 10% FBS. HEK 293 cells were stably transfected with human TrkA plasmid (see below) and maintained in DMEM with 10% FBS and G418 (600 μg/mL) for selection.
Expression of human TrkA in HEK cells was achieved by transfecting the cells with the TrkA expression vector using Lipofectamine (Invitrogen) reagent. HEK cells were plated in 100 mm Petri dishes at a concentration of 10^6 cells per dish. The next day, a solution of DNA diluted in 1 mL OptiMEM (Invitrogen) per dish was prepared and incubated for 15 min at room temperature. […]
(§2) NGF binding was evaluated using methods familiar to those who are skilled in the art. […] Non-specific binding was determined for reference by incubating ^125I-NGF with an excess of non-radioactive NGF in the absence of compound. Following a two-hour incubation period at 4° C., ^125I-NGF bound to the cells was quantified in a gamma radiation counter following separation from unbound NGF by filtration or centrifugation through glycerol (10% in HKR). Inhibition of binding was calculated as a percent of the specific binding (calculated as the differential between ^125I-NGF binding in the absence and presence of an excess of non-radioactive NGF without compound). […]

PC12 (TrkA & p75) [2] = system: T1, PC12 (TrkA & p75); assay: 125I-NGF binding displacement in PC12 cells; parameters: species or system rat; details: PC12, A875 and HEK_TrkA cells taken together
T1 construct: other: PC12, A875 an; fused on or other part: 125I label on NGF
Method: as §1
as §2, with “art. Briefly, cells expressing one or both NGF receptors (PC12: TrkA+p75; A875: p75 alone; HEK_TrkA: TrkA alone) were harvested by replacing the medium with calcium-magnesium free balanced salt (Grey's) solution and incubating at 37° C. for 15 min.” for “art.”

PC12 (TrkA & p75) [3] = system: T2, PC12 (TrkA & p75); assay: 125I-NGF binding displacement in PC12 cells; parameters: species or system rat; details: PC12 cells expressing TrkA and p75; individual experiment
T2 construct: other: Concentration 25 μM; PC12 cells; other: Concentration 50 μM; other: PC12 cells; 125I-NGF ~0.11 nM; other: PC12 cells expressing TrkA and p75; individual experiment; fused on or other part: 125I label on NGF
Method: as §1
as §2, with “art. Briefly, cells expressing one or both NGF receptors (PC12: TrkA+p75; A875: p75 alone; HEK_TrkA: TrkA alone) were harvested by replacing the medium with calcium-magnesium free balanced salt (Grey's) solution and incubating at 37° C. for 15 min.” for “art.”

Mice = assay: Writhing Test (acetic acid abdominal contraction test); assay type: in vivo, mouse; details: Compound 63 100 mg/kg i.p., Compound 11 15 mg/kg i.p., 10-20 minutes before acetic acid
Method: The acetic acid abdominal contraction test (Martinez et al., Pain 1999; 81: 179) was used to determine the efficacy of different compounds in a model of acute visceral chemical nociception. […] Compound or vehicle was administered (i.p. or s.c.) 15-45 minutes prior to the acetic acid injection. Each episode of writhing is characterized by a lengthwise stretching of the torso with a concomitant arching of the back.
Statistical analysis was performed using Prism™ 4.01 software package (GraphPad, San Diego, Calif., USA). The difference in response levels between treatment groups and control vehicle group was analyzed using an ANOVA followed by Bonferroni's method for post-hoc pair-wise comparisons. A p value <0.05 was considered to be significant.

SMILES: O=C(O)CCCN1C(=O)c2cccc3cc([N+](=O)[O-])cc(c23)C1=O [Compound 63, 4-(5-Nitro-1,3-dioxo-1H,3H-benzo[de]isoquinolin-2-yl)-butyric acid]
- NGF binding displacement, dose-response curve [1]: effectively blocks NGF binding to TrkA
- Block of NGF binding to TrkA and/or p75 (summary of FIGS. 1B, 2A, 2B, 4A, 4B, 6A, 6B, 7A, 8A, 8B) (PC12 (TrkA & p75) [2]): effectively block NGF binding to TrkA and/or p75
- NGF binding displacement, dose-response curve (PC12 (TrkA & p75) [3]): effectively blocks NGF binding to cells expressing TrkA and p75
- Antinociceptive effect in the Writhing Test (Mice): significant antinociceptive effects
